The other results are listed elsewhere or left out.

Protein sequences, listed by entry. Tags and fused reporters are not part of them. Lines headed by an entry give the natural chain unless they say otherwise; changes in a name come on top.
UniProt O75569: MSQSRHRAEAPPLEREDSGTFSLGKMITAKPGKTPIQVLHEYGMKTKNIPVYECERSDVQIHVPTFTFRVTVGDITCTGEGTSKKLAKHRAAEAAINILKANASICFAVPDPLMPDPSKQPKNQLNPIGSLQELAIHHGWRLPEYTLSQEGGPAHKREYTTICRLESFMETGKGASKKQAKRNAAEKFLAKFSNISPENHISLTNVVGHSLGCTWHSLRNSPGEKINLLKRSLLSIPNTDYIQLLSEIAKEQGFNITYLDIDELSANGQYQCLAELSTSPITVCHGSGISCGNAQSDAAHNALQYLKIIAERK
UniProt Q16378: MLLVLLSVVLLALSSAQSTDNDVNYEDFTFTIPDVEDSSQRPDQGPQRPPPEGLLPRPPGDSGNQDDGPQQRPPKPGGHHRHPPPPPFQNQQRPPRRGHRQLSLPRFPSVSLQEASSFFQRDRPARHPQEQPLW
UniProt Q13029: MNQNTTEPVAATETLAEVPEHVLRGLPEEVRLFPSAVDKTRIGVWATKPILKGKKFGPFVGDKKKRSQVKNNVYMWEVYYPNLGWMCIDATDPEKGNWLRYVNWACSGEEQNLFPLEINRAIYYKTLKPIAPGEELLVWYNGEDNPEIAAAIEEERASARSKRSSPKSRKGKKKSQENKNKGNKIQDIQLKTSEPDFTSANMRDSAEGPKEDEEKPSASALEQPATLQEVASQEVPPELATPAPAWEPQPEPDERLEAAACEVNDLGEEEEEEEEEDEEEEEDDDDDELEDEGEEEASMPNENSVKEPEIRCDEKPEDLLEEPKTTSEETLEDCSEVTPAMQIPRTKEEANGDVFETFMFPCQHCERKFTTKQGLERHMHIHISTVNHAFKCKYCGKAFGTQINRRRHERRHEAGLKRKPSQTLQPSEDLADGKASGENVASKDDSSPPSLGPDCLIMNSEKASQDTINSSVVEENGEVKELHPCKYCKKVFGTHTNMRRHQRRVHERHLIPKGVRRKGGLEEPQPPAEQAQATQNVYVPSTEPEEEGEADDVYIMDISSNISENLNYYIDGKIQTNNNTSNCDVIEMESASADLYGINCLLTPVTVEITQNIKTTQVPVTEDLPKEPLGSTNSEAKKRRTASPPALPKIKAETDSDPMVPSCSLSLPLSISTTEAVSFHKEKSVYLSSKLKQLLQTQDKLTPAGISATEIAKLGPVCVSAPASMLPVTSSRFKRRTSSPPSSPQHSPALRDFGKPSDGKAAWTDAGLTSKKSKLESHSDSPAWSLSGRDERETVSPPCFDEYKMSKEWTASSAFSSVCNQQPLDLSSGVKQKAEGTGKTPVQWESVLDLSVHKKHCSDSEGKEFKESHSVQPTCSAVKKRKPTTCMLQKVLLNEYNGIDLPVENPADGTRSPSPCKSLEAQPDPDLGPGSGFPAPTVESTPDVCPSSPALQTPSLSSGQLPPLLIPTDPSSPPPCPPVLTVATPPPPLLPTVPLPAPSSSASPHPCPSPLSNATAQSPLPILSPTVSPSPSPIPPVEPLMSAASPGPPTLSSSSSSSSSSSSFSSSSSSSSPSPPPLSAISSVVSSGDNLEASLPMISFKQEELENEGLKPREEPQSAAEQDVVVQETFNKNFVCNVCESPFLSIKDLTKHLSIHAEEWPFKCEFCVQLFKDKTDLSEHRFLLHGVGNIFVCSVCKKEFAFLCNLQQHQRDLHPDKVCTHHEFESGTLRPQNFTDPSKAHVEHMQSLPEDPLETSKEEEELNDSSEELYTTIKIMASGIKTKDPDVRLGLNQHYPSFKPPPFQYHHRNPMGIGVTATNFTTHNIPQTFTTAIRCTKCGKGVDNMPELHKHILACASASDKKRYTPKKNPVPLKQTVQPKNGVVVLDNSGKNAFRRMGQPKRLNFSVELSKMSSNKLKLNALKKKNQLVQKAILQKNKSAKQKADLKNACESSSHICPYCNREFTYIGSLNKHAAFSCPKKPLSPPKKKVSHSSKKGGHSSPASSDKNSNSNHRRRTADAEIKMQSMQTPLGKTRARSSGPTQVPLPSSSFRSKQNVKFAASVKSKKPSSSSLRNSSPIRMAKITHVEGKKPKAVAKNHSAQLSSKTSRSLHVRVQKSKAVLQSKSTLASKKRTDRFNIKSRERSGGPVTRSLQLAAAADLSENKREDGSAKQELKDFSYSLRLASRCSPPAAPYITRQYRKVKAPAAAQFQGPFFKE
UniProt O43663: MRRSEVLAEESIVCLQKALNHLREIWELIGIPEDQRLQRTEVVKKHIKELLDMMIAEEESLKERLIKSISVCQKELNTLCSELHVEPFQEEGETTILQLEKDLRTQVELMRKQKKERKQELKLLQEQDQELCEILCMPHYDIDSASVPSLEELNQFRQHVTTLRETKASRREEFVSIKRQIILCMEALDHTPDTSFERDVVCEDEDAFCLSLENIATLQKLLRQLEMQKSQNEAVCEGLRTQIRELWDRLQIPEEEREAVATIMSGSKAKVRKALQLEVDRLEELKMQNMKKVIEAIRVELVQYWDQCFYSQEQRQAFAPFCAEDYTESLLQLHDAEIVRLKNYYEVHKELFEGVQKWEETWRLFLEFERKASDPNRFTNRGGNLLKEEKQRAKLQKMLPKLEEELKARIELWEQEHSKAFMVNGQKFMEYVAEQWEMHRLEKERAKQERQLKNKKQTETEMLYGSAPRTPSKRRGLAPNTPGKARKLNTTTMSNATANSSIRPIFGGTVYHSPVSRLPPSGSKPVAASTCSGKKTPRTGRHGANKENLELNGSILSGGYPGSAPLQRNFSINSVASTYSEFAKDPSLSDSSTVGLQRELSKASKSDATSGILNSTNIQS
UniProt Q96LW4: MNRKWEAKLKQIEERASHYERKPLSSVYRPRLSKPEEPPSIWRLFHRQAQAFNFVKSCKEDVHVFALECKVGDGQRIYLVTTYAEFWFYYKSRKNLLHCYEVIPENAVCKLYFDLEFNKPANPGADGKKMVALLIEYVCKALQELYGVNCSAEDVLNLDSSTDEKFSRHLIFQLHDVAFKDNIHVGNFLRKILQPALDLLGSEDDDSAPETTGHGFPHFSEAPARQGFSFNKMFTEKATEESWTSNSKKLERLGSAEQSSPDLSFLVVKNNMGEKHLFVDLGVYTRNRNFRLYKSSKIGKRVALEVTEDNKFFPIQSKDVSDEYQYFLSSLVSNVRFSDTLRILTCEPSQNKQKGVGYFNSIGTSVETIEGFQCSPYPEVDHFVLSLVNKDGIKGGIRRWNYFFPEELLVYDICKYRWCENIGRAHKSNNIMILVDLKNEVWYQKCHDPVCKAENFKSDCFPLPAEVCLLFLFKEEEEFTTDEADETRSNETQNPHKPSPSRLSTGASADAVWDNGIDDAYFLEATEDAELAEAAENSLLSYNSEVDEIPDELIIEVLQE
UniProt Q9Y5P8: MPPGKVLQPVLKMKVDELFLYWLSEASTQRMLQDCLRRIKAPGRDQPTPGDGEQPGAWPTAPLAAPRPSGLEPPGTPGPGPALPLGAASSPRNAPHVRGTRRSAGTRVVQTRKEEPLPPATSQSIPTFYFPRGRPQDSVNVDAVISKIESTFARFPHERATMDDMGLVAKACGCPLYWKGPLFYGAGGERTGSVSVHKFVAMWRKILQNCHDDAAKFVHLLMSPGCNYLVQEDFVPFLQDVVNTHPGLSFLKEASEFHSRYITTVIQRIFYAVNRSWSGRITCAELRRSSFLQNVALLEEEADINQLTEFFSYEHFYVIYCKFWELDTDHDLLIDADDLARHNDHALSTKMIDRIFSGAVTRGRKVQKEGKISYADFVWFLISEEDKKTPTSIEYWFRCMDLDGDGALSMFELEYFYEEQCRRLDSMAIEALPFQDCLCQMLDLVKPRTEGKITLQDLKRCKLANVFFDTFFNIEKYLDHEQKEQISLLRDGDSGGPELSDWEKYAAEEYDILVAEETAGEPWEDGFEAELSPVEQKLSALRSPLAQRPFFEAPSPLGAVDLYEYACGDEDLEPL
UniProt Q5THK1: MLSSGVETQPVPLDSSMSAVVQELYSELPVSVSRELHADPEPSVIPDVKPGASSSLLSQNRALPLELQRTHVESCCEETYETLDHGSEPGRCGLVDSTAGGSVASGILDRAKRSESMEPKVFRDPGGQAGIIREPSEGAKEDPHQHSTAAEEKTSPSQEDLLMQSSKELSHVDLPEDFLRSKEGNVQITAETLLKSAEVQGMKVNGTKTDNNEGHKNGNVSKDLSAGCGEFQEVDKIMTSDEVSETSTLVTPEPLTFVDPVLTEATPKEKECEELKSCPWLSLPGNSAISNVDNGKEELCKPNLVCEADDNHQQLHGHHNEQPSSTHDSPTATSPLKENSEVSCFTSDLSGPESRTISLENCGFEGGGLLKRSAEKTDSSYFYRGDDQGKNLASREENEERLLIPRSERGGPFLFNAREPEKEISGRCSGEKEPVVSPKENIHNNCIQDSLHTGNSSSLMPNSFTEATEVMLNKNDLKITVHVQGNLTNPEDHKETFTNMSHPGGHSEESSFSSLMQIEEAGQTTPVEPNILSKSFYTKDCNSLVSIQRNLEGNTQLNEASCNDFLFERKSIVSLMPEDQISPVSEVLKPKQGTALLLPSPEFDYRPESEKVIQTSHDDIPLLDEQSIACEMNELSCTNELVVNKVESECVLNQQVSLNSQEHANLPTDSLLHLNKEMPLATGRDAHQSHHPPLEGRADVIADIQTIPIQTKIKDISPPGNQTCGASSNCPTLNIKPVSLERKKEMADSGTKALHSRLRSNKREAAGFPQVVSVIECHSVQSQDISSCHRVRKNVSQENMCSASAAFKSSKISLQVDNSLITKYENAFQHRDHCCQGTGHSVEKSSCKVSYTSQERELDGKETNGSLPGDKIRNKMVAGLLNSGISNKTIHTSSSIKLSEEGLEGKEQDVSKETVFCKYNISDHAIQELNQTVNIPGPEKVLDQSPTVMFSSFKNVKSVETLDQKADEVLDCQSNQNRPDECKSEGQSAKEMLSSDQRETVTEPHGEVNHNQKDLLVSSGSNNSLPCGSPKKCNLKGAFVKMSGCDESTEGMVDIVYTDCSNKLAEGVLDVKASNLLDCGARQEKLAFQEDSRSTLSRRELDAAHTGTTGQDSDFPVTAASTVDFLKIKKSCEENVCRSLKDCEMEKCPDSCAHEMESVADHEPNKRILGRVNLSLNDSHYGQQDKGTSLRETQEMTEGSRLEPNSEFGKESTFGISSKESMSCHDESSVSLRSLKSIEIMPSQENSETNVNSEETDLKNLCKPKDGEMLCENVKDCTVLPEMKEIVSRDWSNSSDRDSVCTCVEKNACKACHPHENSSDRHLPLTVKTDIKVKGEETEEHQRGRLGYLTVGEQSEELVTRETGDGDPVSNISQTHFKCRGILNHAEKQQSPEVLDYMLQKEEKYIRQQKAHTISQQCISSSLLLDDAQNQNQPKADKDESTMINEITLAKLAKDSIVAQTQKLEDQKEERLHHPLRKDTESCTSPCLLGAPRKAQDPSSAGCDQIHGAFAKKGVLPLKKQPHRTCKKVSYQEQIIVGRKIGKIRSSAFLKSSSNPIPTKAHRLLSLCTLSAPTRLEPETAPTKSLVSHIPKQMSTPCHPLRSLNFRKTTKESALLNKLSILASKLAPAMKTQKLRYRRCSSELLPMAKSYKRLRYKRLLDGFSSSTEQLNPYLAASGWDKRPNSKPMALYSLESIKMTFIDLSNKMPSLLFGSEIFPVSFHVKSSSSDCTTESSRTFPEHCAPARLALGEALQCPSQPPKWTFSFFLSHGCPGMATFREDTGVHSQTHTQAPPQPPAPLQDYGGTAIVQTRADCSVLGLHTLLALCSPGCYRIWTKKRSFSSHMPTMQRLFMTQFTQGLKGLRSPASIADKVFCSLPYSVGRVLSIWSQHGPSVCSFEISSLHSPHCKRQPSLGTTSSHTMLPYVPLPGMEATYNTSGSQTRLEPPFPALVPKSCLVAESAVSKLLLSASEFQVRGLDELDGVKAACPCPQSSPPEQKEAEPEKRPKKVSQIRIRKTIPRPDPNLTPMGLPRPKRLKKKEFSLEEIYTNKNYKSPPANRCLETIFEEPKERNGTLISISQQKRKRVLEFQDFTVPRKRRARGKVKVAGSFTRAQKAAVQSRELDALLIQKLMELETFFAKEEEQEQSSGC
UniProt Q969Q6: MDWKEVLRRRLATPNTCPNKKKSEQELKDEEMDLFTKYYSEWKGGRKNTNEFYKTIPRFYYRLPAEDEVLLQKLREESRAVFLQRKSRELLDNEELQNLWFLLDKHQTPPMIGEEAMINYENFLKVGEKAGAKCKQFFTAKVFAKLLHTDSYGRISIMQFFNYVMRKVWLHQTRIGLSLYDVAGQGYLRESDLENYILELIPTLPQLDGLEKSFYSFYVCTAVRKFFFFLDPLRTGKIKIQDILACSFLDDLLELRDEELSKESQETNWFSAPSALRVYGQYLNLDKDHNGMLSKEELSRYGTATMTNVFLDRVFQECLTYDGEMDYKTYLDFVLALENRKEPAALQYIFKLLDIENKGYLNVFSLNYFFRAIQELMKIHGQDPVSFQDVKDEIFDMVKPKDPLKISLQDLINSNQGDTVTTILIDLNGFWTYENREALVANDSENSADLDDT

Compound in one experiment: C1=CC=C2C(=C1)C3=NNC4=CC=CC(=C43)C2=O
The experiment can be described thus: log2 fold change, soluble protein after heating vs DMSO (PISA); higher = thermal stabilisation; K562 cells, 10 uM, 30 min; active = over 0.2 and 3.5 SD of the protein, either way, in both replicates (recomputed). In outline: (§1)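 Soluble protein was defined as the supernatant after 21,000xg for 90 min. It came from K562 cells at 2×10^6 cells/mL given 10 μM compound for 30 min, heated in aliquots for 3 min across 48°C-58°C, pooled, and extracted in PBS with 0.5% NP-40 at 4°C, and was quantified by TMTpro 16plex LC-MS/MS with equalised channel sums. Thermal stability against control samples, from duplicates, is reported as log2 fold change.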
PRKRA (UniProt O75569): the log2 fold change was inactive: -0.015.

PRR4 (UniProt Q16378): the log2 fold change was inactive: -0.102.

For the target PRDM2 (UniProt Q13029), the log2 fold change was inactive: -0.168.

In the case of PRC1 (UniProt O43663), the log2 fold change was inactive: -0.116.

Take PRIMPOL (UniProt Q96LW4): the log2 fold change is inactive: 0.25.

For PROSER3, A0A2R8Y8D9, the log2 fold change is inactive: 0.065.

Take PPP2R3B (UniProt Q9Y5P8): the log2 fold change is inactive: 0.028.

Turning to PRR14L (UniProt Q5THK1), the log2 fold change is inactive: -0.091.

As to PPP2R2A, A0A590UJJ1, the log2 fold change is inactive: 0.019.

Compound in another experiment: C1CCN(C1)C(=O)NC2=CC=CC(=C2)NC3=NC=C(C(=N3)NCCC4=CN=CN4)Br
Described as above. In a few lines: as §1
PRKRA (UniProt O75569): the log2 fold change is inactive: -0.037.

In the case of PRPF39 (UniProt Q86UA1), the log2 fold change is inactive: -0.006.

As to PPP2R1B (UniProt H0YDG7), the log2 fold change was inactive: 0.273.

With PPP2R3C (UniProt Q969Q6), the log2 fold change is inactive: 0.078.

For PRDM2 (UniProt Q13029), the log2 fold change was inactive: -0.003.

Consider PRR3 (UniProt P79522), for which the log2 fold change is inactive: -0.042.

Consider PPP1R3D (UniProt O95685), for which the log2 fold change was inactive: 0.024.

Take PRC1 (UniProt O43663): the log2 fold change is inactive: 0.132.

Take PRIMPOL (UniProt Q96LW4): the log2 fold change was inactive: -0.006.

For the target PROSER1 (UniProt Q86XN7), the log2 fold change was inactive: -0.348.

For the target PROSER3, A0A2R8Y8D9, the log2 fold change is inactive: 0.098.

PPP1R13L (UniProt Q8WUF5): the log2 fold change was inactive: -0.043.

In the case of PROSER3 (UniProt Q2NL68), the log2 fold change is inactive: -0.022.

Take PPP2R3B (UniProt Q9Y5P8): the log2 fold change is inactive: -0.067.

Turning to PRR14L (UniProt Q5THK1), the log2 fold change is inactive: 0.166.

With PRADC1 (UniProt Q9BSG0), the log2 fold change is inactive: -0.078.

Compound in a further experiment: C1CN(CCC1(CC2=CC=C(C=C2)Cl)N)C3=NC=NC4=C3C=CN4
The experiment is described as above. In a few lines:
as §1
Take PRKRA (UniProt O75569): the log2 fold change was inactive: -0.081.

As to PRPF39 (UniProt Q86UA1), the log2 fold change was inactive: -0.044.

For the target PPP2R1B (UniProt H0YDG7), the log2 fold change is inactive: -0.013.

For PPP2R3C (UniProt Q969Q6), the log2 fold change was inactive: 0.047.

Regarding PRDM2 (UniProt Q13029), the log2 fold change is inactive: -0.116.

Turning to PRR3 (UniProt P79522), the log2 fold change is inactive: -0.136.

On to PPP1R3D (UniProt O95685), for which the log2 fold change is inactive: 0.016.

As to PRC1 (UniProt O43663), the log2 fold change is inactive: -0.233.

In the case of PRIMPOL (UniProt Q96LW4), the log2 fold change was inactive: 0.023.

In the case of PROSER1 (UniProt Q86XN7), the log2 fold change is inactive: -0.018.

Take PROSER3, A0A2R8Y8D9: the log2 fold change was inactive: 0.141.

As to PPP1R13L (UniProt Q8WUF5), the log2 fold change is inactive: 0.126.

On to PROSER3 (UniProt Q2NL68), for which the log2 fold change was inactive: -0.058.

Turning to PPP2R3B (UniProt Q9Y5P8), the log2 fold change is inactive: -0.221.

Take PRR14L (UniProt Q5THK1): the log2 fold change is inactive: -0.023.

As to PRADC1 (UniProt Q9BSG0), the log2 fold change is inactive: 0.064.

The values are drawn from the supplement of paper PMC10849652.
